The values below come from publication PMC11895297.

The chains behind the UniProt entries cited, without tags or fusion partners. Where a name states a change or a piece, a line headed by the entry shows the natural chain unless it says otherwise.
UniProt Q07869: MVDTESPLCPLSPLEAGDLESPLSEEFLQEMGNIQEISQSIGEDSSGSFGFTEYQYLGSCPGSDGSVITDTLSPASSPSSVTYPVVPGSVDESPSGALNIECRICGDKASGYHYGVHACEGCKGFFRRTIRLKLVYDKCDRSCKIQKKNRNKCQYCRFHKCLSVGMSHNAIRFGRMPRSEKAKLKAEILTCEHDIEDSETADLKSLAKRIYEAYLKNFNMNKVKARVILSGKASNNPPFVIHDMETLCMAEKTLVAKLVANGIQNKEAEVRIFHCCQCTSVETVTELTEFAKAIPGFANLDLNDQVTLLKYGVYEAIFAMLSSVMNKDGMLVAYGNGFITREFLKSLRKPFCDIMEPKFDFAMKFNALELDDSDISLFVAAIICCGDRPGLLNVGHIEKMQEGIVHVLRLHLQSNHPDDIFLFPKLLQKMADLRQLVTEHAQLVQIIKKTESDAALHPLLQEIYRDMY
UniProt O14980: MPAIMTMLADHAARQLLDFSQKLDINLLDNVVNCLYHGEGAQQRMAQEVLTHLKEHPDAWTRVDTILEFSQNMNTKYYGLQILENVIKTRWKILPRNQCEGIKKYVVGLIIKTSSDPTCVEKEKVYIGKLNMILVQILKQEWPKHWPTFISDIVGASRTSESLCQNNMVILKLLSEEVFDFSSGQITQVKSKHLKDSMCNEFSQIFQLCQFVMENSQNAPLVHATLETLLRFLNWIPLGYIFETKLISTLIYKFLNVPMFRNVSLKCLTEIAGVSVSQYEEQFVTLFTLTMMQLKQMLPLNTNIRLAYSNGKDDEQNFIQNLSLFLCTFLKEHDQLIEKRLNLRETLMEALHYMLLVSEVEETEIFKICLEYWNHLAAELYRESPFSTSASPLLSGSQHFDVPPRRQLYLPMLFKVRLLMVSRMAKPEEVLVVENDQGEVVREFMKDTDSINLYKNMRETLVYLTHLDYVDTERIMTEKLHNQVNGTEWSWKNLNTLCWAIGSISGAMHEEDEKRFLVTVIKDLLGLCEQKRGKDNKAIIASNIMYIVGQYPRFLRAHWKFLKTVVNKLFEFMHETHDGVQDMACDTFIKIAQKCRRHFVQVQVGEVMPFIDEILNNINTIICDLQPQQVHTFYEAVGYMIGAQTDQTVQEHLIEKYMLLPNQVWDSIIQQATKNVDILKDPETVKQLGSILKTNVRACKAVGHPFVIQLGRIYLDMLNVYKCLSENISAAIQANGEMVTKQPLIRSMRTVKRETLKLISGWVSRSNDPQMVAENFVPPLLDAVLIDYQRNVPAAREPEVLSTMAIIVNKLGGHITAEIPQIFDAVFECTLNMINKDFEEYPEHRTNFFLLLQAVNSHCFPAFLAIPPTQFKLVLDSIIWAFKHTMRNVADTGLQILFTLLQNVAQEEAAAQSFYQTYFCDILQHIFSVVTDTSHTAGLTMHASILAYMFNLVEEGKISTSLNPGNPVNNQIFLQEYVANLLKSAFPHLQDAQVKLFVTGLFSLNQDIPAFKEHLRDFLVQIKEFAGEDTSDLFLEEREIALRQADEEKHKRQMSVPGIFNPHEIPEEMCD

Results are given in words; binding and its absence hold for the method and conditions named. In cells and extracts the contact can be indirect.

The assay deals with PPARα-Flag with truncating mutation in the D domain (UniProt Q07869). Briefly: co-IP; HepG2 cells transfected with RAN-HA or PPARα-Flag constructs, 1 mg protein immunoprecipitated with Flag/HA-beads overnight, western blot. On the technique in general: Immunoblotting shows a protein as a band on a membrane.

Regarding “Chromosome maintenance region 1 (endogenous) (from UniProt O14980 1-1071)”, the binding entry is given as “no binding”.
